The values below come from the supplement of paper PMC12067093, “Discovery and optimisation of a covalent ligand for TRIM25 and its application to targeted protein ubiquitination” (Chemical Science, 2025).

Protein sequences, listed by entry. Tags and fused reporters are not part of them. Lines headed by an entry give the natural chain unless they say otherwise; changes in a name come on top.
UniProt Q9Y6J0: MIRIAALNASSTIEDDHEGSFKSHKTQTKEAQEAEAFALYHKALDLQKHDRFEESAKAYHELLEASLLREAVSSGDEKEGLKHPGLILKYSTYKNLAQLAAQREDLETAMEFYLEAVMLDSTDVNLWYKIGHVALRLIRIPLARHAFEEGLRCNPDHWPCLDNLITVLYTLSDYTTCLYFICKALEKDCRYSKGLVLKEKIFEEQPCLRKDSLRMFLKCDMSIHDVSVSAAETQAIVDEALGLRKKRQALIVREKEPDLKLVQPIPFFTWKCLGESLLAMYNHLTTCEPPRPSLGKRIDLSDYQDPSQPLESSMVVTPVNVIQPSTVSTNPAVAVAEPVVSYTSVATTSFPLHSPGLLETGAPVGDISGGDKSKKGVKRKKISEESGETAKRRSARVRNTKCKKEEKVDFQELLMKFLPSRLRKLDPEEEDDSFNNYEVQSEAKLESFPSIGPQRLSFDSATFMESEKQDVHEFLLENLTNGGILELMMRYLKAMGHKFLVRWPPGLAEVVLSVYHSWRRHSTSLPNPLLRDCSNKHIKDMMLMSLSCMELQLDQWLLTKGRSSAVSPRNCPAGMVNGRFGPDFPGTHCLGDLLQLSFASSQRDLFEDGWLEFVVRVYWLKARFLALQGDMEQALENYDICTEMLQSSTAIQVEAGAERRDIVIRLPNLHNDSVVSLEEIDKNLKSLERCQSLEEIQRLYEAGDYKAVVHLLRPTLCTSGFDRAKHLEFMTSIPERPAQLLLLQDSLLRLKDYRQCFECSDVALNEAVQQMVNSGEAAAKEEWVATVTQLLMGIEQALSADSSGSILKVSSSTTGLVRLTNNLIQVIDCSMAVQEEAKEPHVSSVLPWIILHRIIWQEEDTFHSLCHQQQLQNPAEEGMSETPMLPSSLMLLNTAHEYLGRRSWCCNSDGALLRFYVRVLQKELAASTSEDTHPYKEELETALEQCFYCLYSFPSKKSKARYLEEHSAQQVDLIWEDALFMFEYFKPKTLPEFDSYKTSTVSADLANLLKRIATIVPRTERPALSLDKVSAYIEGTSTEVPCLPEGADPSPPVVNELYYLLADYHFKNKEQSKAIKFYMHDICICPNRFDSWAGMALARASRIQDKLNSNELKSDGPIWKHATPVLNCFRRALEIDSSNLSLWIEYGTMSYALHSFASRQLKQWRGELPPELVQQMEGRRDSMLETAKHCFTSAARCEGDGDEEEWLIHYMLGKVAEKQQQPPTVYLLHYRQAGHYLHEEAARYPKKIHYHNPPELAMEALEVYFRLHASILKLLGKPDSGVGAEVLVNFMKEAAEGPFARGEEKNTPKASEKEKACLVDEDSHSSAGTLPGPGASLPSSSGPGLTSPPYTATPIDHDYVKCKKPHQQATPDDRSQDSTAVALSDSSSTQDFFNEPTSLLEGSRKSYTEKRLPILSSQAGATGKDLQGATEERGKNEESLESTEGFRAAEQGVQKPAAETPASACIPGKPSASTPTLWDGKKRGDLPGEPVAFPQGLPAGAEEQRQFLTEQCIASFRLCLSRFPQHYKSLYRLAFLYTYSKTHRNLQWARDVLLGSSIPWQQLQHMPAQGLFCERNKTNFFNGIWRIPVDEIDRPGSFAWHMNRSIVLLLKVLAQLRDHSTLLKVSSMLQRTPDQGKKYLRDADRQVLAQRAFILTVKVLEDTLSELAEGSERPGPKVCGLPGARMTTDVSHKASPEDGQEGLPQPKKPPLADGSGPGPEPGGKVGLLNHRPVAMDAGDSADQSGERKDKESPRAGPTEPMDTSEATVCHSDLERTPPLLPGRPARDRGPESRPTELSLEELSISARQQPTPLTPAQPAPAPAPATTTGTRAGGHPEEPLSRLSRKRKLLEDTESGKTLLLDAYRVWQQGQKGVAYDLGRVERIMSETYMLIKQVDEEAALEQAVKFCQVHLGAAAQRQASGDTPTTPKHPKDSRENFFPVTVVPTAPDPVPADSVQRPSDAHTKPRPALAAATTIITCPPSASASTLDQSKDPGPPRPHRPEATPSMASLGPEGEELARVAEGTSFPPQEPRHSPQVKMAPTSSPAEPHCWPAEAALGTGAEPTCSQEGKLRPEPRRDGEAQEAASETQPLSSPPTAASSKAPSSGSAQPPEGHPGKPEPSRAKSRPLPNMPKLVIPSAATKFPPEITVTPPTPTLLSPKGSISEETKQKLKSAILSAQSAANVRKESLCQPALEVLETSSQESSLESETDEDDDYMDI
UniProt Q5JPI3: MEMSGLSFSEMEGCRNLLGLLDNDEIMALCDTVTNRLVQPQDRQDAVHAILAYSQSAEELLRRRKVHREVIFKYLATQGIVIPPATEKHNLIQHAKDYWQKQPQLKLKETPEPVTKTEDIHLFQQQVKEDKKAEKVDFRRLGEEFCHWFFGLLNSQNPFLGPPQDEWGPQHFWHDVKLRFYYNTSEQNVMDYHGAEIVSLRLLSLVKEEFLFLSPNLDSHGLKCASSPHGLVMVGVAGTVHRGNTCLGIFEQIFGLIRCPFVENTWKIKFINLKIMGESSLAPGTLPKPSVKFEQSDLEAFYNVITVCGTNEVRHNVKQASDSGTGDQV
UniProt Q8WUR7: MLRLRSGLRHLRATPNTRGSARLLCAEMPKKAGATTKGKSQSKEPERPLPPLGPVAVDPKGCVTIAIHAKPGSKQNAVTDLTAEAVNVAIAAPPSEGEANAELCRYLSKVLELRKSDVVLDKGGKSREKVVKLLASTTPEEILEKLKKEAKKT
UniProt O43684, whole entry, looked up: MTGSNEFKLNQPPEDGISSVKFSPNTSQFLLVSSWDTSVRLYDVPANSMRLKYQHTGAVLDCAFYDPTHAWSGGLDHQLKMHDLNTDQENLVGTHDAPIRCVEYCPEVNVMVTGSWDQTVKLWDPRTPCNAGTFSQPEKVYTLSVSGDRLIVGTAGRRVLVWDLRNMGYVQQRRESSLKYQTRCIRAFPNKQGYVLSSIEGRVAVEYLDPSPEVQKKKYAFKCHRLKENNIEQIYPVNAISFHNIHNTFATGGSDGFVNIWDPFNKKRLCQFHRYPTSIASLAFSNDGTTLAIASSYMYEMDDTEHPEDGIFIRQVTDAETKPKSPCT
UniProt Q06187: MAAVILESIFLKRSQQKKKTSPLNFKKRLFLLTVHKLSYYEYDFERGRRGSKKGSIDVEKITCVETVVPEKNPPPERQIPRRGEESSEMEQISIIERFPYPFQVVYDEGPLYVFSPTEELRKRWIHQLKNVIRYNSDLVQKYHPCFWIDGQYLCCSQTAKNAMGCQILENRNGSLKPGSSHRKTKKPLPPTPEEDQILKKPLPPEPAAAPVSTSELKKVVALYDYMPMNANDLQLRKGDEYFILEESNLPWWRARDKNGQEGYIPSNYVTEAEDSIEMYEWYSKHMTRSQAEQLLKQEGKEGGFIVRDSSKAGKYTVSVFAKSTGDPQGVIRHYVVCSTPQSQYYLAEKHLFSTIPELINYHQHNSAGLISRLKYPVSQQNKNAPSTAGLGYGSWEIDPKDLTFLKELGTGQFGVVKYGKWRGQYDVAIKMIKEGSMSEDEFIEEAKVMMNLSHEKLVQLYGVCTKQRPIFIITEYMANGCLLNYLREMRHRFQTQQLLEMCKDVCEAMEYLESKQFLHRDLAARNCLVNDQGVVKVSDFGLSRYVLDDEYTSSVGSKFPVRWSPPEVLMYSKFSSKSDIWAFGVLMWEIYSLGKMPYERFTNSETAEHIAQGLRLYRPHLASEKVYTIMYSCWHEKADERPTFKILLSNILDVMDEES
UniProt Q7Z569: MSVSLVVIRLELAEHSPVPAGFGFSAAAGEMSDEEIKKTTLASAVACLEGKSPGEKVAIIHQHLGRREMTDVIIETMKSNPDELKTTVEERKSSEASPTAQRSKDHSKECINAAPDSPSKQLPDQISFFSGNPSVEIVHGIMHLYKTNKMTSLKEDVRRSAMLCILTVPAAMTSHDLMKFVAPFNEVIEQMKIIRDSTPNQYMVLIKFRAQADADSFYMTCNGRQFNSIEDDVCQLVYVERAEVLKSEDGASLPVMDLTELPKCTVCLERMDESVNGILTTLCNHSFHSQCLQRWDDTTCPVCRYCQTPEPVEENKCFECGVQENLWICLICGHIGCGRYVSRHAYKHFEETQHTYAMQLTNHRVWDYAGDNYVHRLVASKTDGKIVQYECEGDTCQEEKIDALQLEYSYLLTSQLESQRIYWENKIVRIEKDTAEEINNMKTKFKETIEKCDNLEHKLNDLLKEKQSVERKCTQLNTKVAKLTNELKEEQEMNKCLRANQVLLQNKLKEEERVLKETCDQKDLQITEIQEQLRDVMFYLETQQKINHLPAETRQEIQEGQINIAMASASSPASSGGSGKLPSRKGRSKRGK
UniProt P27708: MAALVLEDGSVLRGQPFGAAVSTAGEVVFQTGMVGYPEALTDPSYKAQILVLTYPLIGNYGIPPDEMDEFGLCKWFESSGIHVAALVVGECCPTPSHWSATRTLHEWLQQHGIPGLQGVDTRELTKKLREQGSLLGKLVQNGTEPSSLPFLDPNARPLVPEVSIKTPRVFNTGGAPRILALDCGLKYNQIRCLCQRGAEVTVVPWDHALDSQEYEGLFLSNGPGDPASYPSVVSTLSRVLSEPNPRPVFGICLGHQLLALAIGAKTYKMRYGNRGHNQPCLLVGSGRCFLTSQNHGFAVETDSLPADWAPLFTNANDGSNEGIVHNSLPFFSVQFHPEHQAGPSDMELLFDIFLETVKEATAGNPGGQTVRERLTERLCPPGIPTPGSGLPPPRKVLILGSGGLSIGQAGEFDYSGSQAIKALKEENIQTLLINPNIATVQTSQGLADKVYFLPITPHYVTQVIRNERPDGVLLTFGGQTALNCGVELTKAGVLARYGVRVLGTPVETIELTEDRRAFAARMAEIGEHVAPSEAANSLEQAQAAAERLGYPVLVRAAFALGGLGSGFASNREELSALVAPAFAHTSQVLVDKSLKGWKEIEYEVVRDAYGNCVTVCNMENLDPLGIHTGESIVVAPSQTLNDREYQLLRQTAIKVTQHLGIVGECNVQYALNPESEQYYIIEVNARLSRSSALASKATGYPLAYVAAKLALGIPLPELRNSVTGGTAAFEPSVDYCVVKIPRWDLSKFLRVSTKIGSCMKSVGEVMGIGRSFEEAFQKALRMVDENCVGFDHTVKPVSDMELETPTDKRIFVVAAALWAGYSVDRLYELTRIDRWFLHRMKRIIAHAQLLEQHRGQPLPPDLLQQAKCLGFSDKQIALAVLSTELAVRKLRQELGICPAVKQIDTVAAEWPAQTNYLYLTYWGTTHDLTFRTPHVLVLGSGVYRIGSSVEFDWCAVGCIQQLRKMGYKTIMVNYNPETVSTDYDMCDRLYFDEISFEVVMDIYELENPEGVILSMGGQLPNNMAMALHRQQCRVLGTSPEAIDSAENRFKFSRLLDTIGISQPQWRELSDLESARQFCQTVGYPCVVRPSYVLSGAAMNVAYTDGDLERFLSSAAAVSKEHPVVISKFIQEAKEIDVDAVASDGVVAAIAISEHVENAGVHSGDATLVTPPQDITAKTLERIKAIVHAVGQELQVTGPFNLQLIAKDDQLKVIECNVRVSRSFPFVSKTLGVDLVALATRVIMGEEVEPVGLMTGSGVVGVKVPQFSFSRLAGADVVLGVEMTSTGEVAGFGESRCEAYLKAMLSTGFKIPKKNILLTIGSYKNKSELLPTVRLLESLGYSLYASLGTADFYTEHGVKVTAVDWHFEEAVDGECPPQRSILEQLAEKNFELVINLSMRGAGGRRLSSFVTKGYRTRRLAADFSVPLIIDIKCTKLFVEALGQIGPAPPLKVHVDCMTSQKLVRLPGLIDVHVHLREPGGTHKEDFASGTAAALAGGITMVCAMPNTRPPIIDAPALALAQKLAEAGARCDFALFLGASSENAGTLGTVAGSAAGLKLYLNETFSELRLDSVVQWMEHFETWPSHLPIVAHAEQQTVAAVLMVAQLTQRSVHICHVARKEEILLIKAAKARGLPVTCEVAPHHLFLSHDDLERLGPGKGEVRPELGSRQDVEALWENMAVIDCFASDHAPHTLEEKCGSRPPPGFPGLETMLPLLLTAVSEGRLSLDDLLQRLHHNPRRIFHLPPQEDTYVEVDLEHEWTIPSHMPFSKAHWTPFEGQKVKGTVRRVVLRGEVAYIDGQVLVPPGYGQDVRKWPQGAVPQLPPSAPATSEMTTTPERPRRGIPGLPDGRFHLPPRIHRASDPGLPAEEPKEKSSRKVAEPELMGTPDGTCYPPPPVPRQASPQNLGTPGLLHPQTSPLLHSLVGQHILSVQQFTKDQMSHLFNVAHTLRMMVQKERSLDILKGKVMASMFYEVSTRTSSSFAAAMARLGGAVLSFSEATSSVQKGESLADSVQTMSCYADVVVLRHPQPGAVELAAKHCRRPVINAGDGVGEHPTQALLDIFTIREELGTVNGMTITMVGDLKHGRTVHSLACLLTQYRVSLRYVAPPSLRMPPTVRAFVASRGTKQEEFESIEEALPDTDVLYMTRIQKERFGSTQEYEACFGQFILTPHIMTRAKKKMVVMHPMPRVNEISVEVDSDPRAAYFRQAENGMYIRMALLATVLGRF

This is one part of the list.

Compound in this test: CC1Cc2ccccc2N1C(=O)C1CCCN(C1)C(=O)CCl (mixture of isomers) [TRIM25 ligand 11 (diastereomer mixture)]
As to the kind of experiment: probe-labelled cysteine peptide fold change vs DMSO (competition) (log2 fold change); higher = less target engagement (more negative = stronger competition). To be noted: THP-1, incubation time: 4 h.
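Also: competitive chemoproteomic profiling in live THP-1 cells with an iodoacetamide desthiobiotin (IA-DTB) probe, comparing probe-labelled peptide intensities in compound-treated cells against DMSO-treated controls.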

Turning to “BUD31_P41223_134_IIECTHCGCR (UniProt P41223)”, the “probe-labelled cysteine peptide fold change” value by setting is: (10 µM) 0.0669; (50 µM) 0.255.

As for “CABIN1_Q9Y6J0_1769_AGPTEPMDTSEATVCHSDLER (UniProt Q9Y6J0)”, the “probe-labelled cysteine peptide fold change” value (10 µM) is -0.0778 and the “probe-labelled cysteine peptide fold change” value (50 µM) was -0.392.

Regarding “BTAF1_O14981_109_LNFDRFDICR (UniProt O14981)”, the “probe-labelled cysteine peptide fold change” value by setting is: (10 µM) -0.151; (50 µM) -0.329.

Consider “C8orf82_Q6P1X6_66_NFITCFK (UniProt Q6P1X6)”, for which the “probe-labelled cysteine peptide fold change” value (10 µM) worked out at 0.0466 and the “probe-labelled cysteine peptide fold change” value (50 µM) was determined as 0.291.

“CAMK1_Q14012_355_DCCVEPGTELSPTLPHQL (UniProt Q14012)”: the “probe-labelled cysteine peptide fold change” value (10 µM) was 0.166 and the “probe-labelled cysteine peptide fold change” value (50 µM) is 0.0671.

Consider “C2CD5_Q86YS7_243_AIGTACTLDK (UniProt Q86YS7)”, for which the “probe-labelled cysteine peptide fold change” value by setting is: (10 µM) 0.0372; (50 µM) 0.0778.

For “BUB1_O43683_407_DAGCVNK (UniProt O43683)”, the “probe-labelled cysteine peptide fold change” value was -0.0684 (10 µM) and 0.012 (50 µM).

With “C9orf64_Q5T6V5_281_GCSLWCVELIR (UniProt Q5T6V5)”, the “probe-labelled cysteine peptide fold change” value runs as follows: (10 µM) 0.497; (50 µM) 0.233.

In the case of “C2orf69_Q8N8R5_267_GCVVLNQLLFELK (UniProt Q8N8R5)”, the “probe-labelled cysteine peptide fold change” value reads like this: (10 µM) 0.0349; (50 µM) 0.0787.

Consider “C3orf38_Q5JPI3_224_CASSPHGLVMVGVAGTVHR (UniProt Q5JPI3)”, for which the “probe-labelled cysteine peptide fold change” value by setting is: (10 µM) 0.301; (50 µM) 0.288.

In the case of “C15orf40_Q8WUR7_62_GCVTIAIHAK (UniProt Q8WUR7)”, the “probe-labelled cysteine peptide fold change” value (10 µM) is -0.0875 and the “probe-labelled cysteine peptide fold change” value (50 µM) was -0.0865.

For “C1orf123_Q9NWV4_33+36_CGNCGEISDK (UniProt Q9NWV4)”, the “probe-labelled cysteine peptide fold change” value is, setting by setting: (10 µM) 0.0401; (50 µM) 0.0357.

In the case of “C20orf27_Q9GZN8_106_CEYSAHK (UniProt Q9GZN8)”, the “probe-labelled cysteine peptide fold change” value (10 µM) was 0.0466 and the “probe-labelled cysteine peptide fold change” value (50 µM) was -0.0654.

On to “BUB3_O43684_62_YQHTGAVLDCAFYDPTHAWSGGLDHQLK (UniProt O43684)”, for which the “probe-labelled cysteine peptide fold change” value is, setting by setting: (10 µM) -0.0182; (50 µM) -0.0029.

Consider “CABIN1_Q9Y6J0_829_LTNNLIQVIDCSMAVQEEAK (UniProt Q9Y6J0)”, for which the “probe-labelled cysteine peptide fold change” value was 0.0505 (10 µM) and -0.162 (50 µM).

Turning to “BTK_Q06187_464_LVQLYGVCTK (UniProt Q06187)”, the “probe-labelled cysteine peptide fold change” value reads like this: (10 µM) 0.0992; (50 µM) 0.233.

On to “BUB3_O43684_270_RLCQFHR (UniProt O43684)”, for which the “probe-labelled cysteine peptide fold change” value by setting is: (10 µM) 0.0429; (50 µM) 0.198.

Regarding “BRAP_Q7Z569_47_TTLASAVACLEGK (UniProt Q7Z569)”, the “probe-labelled cysteine peptide fold change” value reads like this: (10 µM) -0.0997; (50 µM) -0.0219.

In the case of “BRIP1_Q9BX63_401_EQVVILDEAHNIEDCAR (UniProt Q9BX63)”, the “probe-labelled cysteine peptide fold change” value is 0.0399 (10 µM) and -0.19 (50 µM).

For the target “BST1_Q10588_238_IEIWVMHEIGGPNVESCGEGSMK (UniProt Q10588)”, the “probe-labelled cysteine peptide fold change” value by setting is: (10 µM) -0.0571; (50 µM) -0.182.

Take “BTK_Q06187_633_VYTIMYSCWHEK (UniProt Q06187)”: the “probe-labelled cysteine peptide fold change” value reads like this: (10 µM) 0.106; (50 µM) -0.0459.

For “CAMK2D_Q13557_428_SNKPIHTIILNPHVHLVGDDAACIAYIR (UniProt Q13557)”, the “probe-labelled cysteine peptide fold change” value (10 µM) was -0.104 and the “probe-labelled cysteine peptide fold change” value (50 µM) is -0.0114.

Consider “CAD_P27708_280_GHNQPCLLVGSGR (UniProt P27708)”, for which the “probe-labelled cysteine peptide fold change” value was -0.018 (10 µM) and 0.065 (50 µM).

As for “C3orf38_Q5JPI3_259_CPFVENTWK (UniProt Q5JPI3)”, the “probe-labelled cysteine peptide fold change” value is, setting by setting: (10 µM) 0.0213; (50 µM) -0.0363.

For “C12orf4_Q9NQ89_350_DFATVCQECTDFHFPR (UniProt Q9NQ89)”, the “probe-labelled cysteine peptide fold change” value was -0.0183 (10 µM) and -0.16 (50 µM).

Consider “BPTF_Q12830_1969_IICPIGVPETPK (UniProt Q12830)”, for which the “probe-labelled cysteine peptide fold change” value is, setting by setting: (10 µM) 0.0568; (50 µM) 0.0296.

For “BRD1_O95696_294_TDDDRWGHVVCALWIPEVGFANTVFIEPIDGVR (UniProt O95696)”, the “probe-labelled cysteine peptide fold change” value reads like this: (10 µM) -0.39; (50 µM) -0.178.

As to “BRIX1_Q8TDN6_52_IPGPVCK (UniProt Q8TDN6)”, the “probe-labelled cysteine peptide fold change” value was -0.00413 (10 µM) and -0.114 (50 µM).

For the target “C5orf22_Q49AR2_195_LALEDSENTASTNCDSSSEGLEK (UniProt Q49AR2)”, the “probe-labelled cysteine peptide fold change” value was 0.0758 (10 µM) and 0.0268 (50 µM).

With “BRAP_Q7Z569_264_CTVCLER (UniProt Q7Z569)”, the “probe-labelled cysteine peptide fold change” value was 0.175 (10 µM) and 0.13 (50 µM).

With “CAD_P27708_1455_VHVDCMTSQK (UniProt P27708)”, the “probe-labelled cysteine peptide fold change” value by setting is: (10 µM) 0.0559; (50 µM) -0.0142.

Take “BTK_Q06187_337_HYVVCSTPQSQYYLAEK (UniProt Q06187)”: the “probe-labelled cysteine peptide fold change” value runs as follows: (10 µM) -0.0303; (50 µM) 0.00342.

Consider “C11orf54_Q9H0W9_154_CHDFQCALLANLFASEGQPGK (UniProt Q9H0W9)”, for which the “probe-labelled cysteine peptide fold change” value was -0.101 (10 µM) and -0.104 (50 µM).

As to “BRD2_P25440_706_YVLSCLR (UniProt P25440)”, the “probe-labelled cysteine peptide fold change” value was -0.118 (10 µM) and -0.0436 (50 µM).
